Positions count from the first letter of the chain named. Results are given in words; binding and its absence hold for the method and conditions named. Some entries that bind do so weakly or less than the wild type.

Chains of the proteins cited; added tags and fusions are not shown. Residues count along the entry.
UniProt P24394, residues 26-825: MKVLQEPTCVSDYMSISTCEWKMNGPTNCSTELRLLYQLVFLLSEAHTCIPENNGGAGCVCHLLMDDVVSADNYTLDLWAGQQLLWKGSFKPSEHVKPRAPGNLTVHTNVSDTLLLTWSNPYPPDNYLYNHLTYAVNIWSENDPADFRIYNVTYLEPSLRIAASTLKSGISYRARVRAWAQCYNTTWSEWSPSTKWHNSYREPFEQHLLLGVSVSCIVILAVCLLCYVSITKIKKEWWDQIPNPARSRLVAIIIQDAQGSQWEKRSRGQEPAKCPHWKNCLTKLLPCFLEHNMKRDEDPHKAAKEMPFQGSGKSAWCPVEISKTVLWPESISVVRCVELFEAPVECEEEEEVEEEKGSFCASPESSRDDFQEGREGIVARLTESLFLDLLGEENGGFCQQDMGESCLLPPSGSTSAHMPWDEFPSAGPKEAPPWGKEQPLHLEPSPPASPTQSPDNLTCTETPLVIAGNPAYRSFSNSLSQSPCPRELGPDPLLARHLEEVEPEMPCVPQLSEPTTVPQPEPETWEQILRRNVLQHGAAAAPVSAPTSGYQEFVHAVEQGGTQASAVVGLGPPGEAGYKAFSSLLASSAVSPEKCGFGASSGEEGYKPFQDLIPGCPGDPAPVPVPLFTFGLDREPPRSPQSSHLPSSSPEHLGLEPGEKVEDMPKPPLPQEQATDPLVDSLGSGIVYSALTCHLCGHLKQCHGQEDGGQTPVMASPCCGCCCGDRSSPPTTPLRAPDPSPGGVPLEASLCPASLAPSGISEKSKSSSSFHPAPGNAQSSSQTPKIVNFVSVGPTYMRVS

The labels stand for the following.
B1: IL4R-CHI-18 (antibody, V domains shown)
VH: QVQLKQSGPGLVQPSQSLSVTCTVSGFSLTNYGVHWVRQSPGKGLEWLGVIWSGGSTDYNAAFKSRLSISKDNSKSQVFFKMNSLQADDTAIYYCARNKGTRPVFDYWGQGTTLTVSS
VL: DIQMTQSPASLSASVGETVTITCRASENIYSYLAWYQQKQGKSPQLLVYNAKTLAEGVPSRFSGSGSGTQFSLKINSLQPEDFGSYYCQHYVSPLTFGAGTKLEVK
B2: IL4R-CHI-07 (antibody, V domains shown)
VH: QVQLQQSGAELVKPGASVKLSCKASGYTFTEYTIHWVKQRSGQGLEWIGWFYPGRGSIKYNEKFKDKATLTADKSSSTVYMELSRLTSEDSAVYFCTRHEYRGSNYAMDYWGQGTSVTVSS
VL: DVLMTQTPLSLPVSLGDQASISCRSSQSIVHSSGNTYLQWYLQKPGQSPKLLIYKVSNRFSGVPDRFSGSGSGTDFTLKISRVEAEDLGVYYCFQGSHVPPTFGGGTKLEIK
B3: IL4R-CHI-17 (antibody, V domains shown)
VH: QAYLQQSGAELVRPGASVKMSCKASGYTFTSYNMHWAKQTPRQGLEWIGSIYPGNGDTSYNQKFKGKATLTVDKSSSTAYMQLSSLTSEDSAVYFCARGGRLRRGDWFAYWGQGTLVTVSA
VL: DIQMTQSPASLSASVGETVTITCRASENIYSYLIWYQQKQGKSPQLLVYDAKTLAEGVPSRFSGSGSGSQFSLKINSLQPEDFGTYYCQHHYGTPLTFGGGTKLELK
B4: IL4R-CHI-14 (antibody, V domains shown)
VH: EVMLVESGGGLVKPGGSLKLSCAASGFTFSSYAMSWVRQTPEKRLEWVAIISGGGDSTYYPDSVKGRFTISRDNAKNTLYLQMSSLRSEDTALYFCARLHYWYFDFWGTGTTVTVSS
VL: DIQMTQSSSSFSVSLGDRVTITCKASEDLYNRLAWYQQKPGNAPRLLISGATSLETGVPSRFSGSGSGRDYTLIITSLQTEDVATYYCQQYWRNPYTFGGGTKLEIK
B5: IL4R-CHI-13 (antibody, V domains shown)
VH: EVQLQQSGPVLVKPGASVKMSCKASGYTFTDYYMNWVKQRHGKSLDWIGTINPYNGGTGYNQKFKGKATLTVDKSSSTAYMELNSLTSEDSAVYFCARSLLRRRGAMDYWGQGTSVTVSS
VL: DIVLTQSPASLVVSLGQRATISCRASKSVSTSGYGYIHWYRQKPGQPPKLLIYLVSNLESGVPARFSGSGSGTDFTLNIHPVEEEDAATYYCQHIRELYTFGGGTKLEIK
B6: IL4R-CHI-04 (antibody, V domains shown)
VH: DVQLQESGPGLVKPSQSLSLTCTVTGYSITSDYAWNWIRQFPGNKLEWMGYISYSGSSSYNPSLKSRISITRDTSKNQFFLQLNSVTTDDTATYYCAGGGLRRRGLFDYWGQGTTLTVSS
VL: QIVLSQSPAILSASPGEKVTMTCRATSSVTYMHWYQQKPGSSPKPWIYATSNLASGVPARFSGSGSGTSYSLTISRVEAEDTATYYCQQWSSIPLTFGAGTKLELK
B7: IL4R-hum-18H5L1 (antibody, V domains shown)
VH: EVTLKESGPVLVKPTETLTLTCTVSGFSLTNYGVHWIRQPPGKALEWLGVIWSGGSTDYNAAFKSRLTISKDNSKSQVVLTMTNMDPVDTATYYCARNKGTRPVFDYWGQGTTVTVSS
VL: DIQMTQSPSSLSASVGDRVTITCRASENIYSYLAWYQQKPGKAPKLLIYNAKTLAEGVPSRFSGSGSGTDFTLTISSLQPEDFATYYCQHYVSPLTFGQGTKLEIK
B8: IL4R-hum-04H7L1 (antibody, V domains shown)
VH: EVQLQESGPGLVKPSETLSLTCTVSGYSISSDYAWNWIRQPPGKGLEWIGYISYSGSSSYNPSLKSRVTISVDTSKNQFSLKLSSVTAADTAVYYCARGGLRRRGLFDYWGQGTTVTVSS
VL: DIQLTQSPSFLSASVGDRVTITCRATSSVTYMHWYQQKPGKAPKPWIYATSNLASGVPSRFSGSGSGTEFTLTISSLQPEDFATYYCQQWSSIPLTFGQGTKLEIK
B9: IL4R-hum-14L2H2 (antibody, V domains shown)
VH: B4 VH with M3Q, K13Q, K19R, T40A, T78S, S84N, S88A, L93V, F95Y, T109Q
VL: DIQMTQSPSSLSASVGDRVTITCKASEDLYNRLAWYQQKPGKAPKLLISGATSLETGVPSRFSGSGSGRDFTLTISSLQPEDFATYYCQQYWRNPYTFGGGTKVEIK
B10: IL4R-hum-13H1aL2a (antibody, V domains shown)
VH: EVQLVQSGAEVKKPGASVKVSCKASGYTFTDYYMNWVRQAPGQRLEWMGTINPYNAGTGYNQKFKGRVTITVDKSASTAYMELSSLRSEDTAVYYCARSLLRRRGAMDYWGQGTTVTVSS
VL: DIVLTQSPDSLAVSLGERATINCRASKSVSTSGYGYIHWYQQKPGQPPKLLIYLVDNLESGVPDRFSGSGSGTDFTLTISSLQAEDVATYYCQHIRELYTFGGGTKVEIK

One experiment addresses Full-length hIL4Rα on human IL4Rα-293T cells (human) (UniProt P24394). The experiment is described as follows: flow cytometry on human IL4Rα-293T cells.
For B1, the binding result was “binds”. Same read-out and setting: next, B2: “binds”. Still for that read-out and setting: the value for B3 was “binds”; that for B4 was “binds”. Same read-out and setting: next, B5: “binds”; B6: “binds”.

A further experiment addresses cynoIL4Rα-ECD(26-232)-His (cynomolgus monkey). The experiment is described as follows: ELISA, biotinylated antigen on streptavidin plate.
Take B7: the binding entry is on record as “binds”.

Turning to B1, the binding result is recorded as “binds”. The same measure, in the same setting: the value for B2 was “binds”. On the same count and under the same terms, the value for B3 was “binds”. On the same count and under the same terms, the value for B8 was “binds”; that for B4 was “binds”; that for B9 was “binds”. With B5, the binding entry is recorded as “binds”.

Regarding B6, the binding result is listed as “binds”.

Regarding B10, the binding entry is recorded as “binds”.
